# Measured values from PubChem BioAssay AID1439 (NMMLSC, 2008).
# Sequences of proteins named here, by UniProt entry; tags and fusion partners are left off.
# UniProt P09471, whole entry, looked up: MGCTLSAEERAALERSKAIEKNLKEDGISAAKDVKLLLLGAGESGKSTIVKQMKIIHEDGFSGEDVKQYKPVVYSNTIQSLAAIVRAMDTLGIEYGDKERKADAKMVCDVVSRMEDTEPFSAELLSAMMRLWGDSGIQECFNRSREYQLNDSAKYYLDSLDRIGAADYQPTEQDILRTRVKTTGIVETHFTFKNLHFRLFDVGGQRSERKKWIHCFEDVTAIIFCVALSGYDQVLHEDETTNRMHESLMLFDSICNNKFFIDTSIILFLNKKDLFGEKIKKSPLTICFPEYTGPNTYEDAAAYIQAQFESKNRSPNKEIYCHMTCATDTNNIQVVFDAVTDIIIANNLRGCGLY
# Out of some 220,000 compounds screened, about 770 (0.35%) were called active. Inconclusive results, whose numbers are uncertain, are shown with a selection of clear calls. No stated cut-off is given here; in the data, active means binding response below about 49% or above about 150%; inconclusive means no clear call, values can overlap the other calls; inactive means in between.
# Target: Guanine nucleotide-binding protein G(o) subunit alpha (Homo sapiens) (UniProt P09471)
# Experiment: RGS7-Galphao binding modulators, primary screen, biochemical, multiplexed bead flow cytometry (AID 1439);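 further: fluorescent Galphao held in activated GDP-AlF4 state binding bead-coupled RGS7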
# Conditions: at 10 µM, actives lie on both sides
row,Structure (SMILES),binding response (% of control)
1,O=C(NCCCn1ccnc1)C(=O)NCC1OCCN1S(=O)(=O)c1ccc2c(c1)OCCO2 (centres undefined),inconclusive: 98.4%
2,Cc1ccc(C(=O)Nc2cccc(S(=O)(=O)N3CCOCC3)c2)cc1[N+](=O)[O-],inconclusive: 125%
3,CCOc1ccc(/C=C(/NC(=O)c2ccc(Cl)cc2)C(=O)O)cc1OCC,inconclusive: 109%
4,CC(C)n1c(N)c(C#N)c2ccc([N+](=O)[O-])cc2c1=O,inconclusive: 88.4%
5,Cc1c(-n2c(SCC(C)C)nc3ccccc3c2=O)c(=O)n(-c2ccccc2)n1C,inconclusive: 108%
6,Cc1ccc(NS(=O)(=O)c2ccc(C)c(C(=O)N3CCN(C)CC3)c2)cc1,inactive: 80.3%
7,Cc1onc(-c2ccccc2Cl)c1C(=O)Nc1sc2c(c1C(N)=O)CCC(C)C2 (centres undefined),inactive: 105%
8,NC(N)=N/N=C/c1c(Cl)cccc1Cl,inconclusive: 54.8%
9,Cc1cccc(NC(=S)NNC(=O)c2cccc([N+](=O)[O-])c2)c1,inconclusive: 54.8%
10,Cc1nn(C(C)(C)C)c(NC(=O)c2ccc(Cl)cc2)c1Br,inconclusive: 115%
11,O=C(NNS(=O)(=O)c1ccc(Cl)cc1)c1cccc(S(=O)(=O)N2CCOCC2)c1,inconclusive: 72.7%
12,O=C(CN1C(=O)c2ccccc2C1=O)Nc1cc([N+](=O)[O-])ccc1O,inconclusive: 104%
13,Cc1c(Cl)c([N+](=O)[O-])nn1Cc1ccc(C(=O)NN)o1,inconclusive: 104%
14,Cc1ccc(C(=O)Nc2nnc(-c3ccncc3)o2)cc1,inconclusive: 110%
15,COc1ccc(-c2nc(N)c(C#N)c(-c3cccnc3)c2C)cc1,inconclusive: 98.2%
16,COc1ccc(C2/C=C\CN(Cc3ccco3)CC(=O)N2Cc2ccc(F)cc2)cc1 (centres undefined),inconclusive: 124%
17,N#C/C(=C\c1ccc(C#N)cc1)C(=O)c1ccccc1,inconclusive: 197%
18,O=C(OCc1cn(Cc2ccccc2)nn1)c1ccccc1,inconclusive: 88%
19,CCOc1cc(C)c(C(C)C)cc1S(=O)(=O)n1cnc(C)c1,inconclusive: 106%
20,O=C(CN1C(=O)/C(=C/c2cccc(Br)c2)SC1=S)N1CCCC1,inactive: 89.2%
21,COc1ccc(/C=N/NC(=O)c2cccnc2)cc1CN1CCOCC1,inconclusive: 72.6%
22,CC(NC(=O)c1ccc(Cl)c(Cl)c1)c1ccc(-c2ccccc2)cc1 (centres undefined),inconclusive: 98.7%

row,Structure (SMILES),binding response (% of control)
1,COc1ccc(S(=O)(=O)N(CC(=O)N2CCOCC2)Cc2ccccc2)cc1,active: 217% [activator]
2,CCOC(=O)C(=NCC1CCCO1)NNc1cc(Cl)ccc1Cl (centres undefined),inconclusive: 88.5%
3,Cc1nc2c(cnn2-c2ccccc2)c(=O)n1/N=C/c1ccccc1,inconclusive: 37%
4,COc1ccc(C(=O)N/N=C/c2sc(=O)n(Cc3cccc(C(=O)O)c3)c2Cl)cc1,inconclusive: 105%
5,Cc1cccc(Oc2ccc(NC(=O)c3ccccc3C(=O)O)cc2)c1C,inconclusive: 103%
6,Cc1ccc(NC(=O)CSc2nnc(-c3n[nH]c4ccccc34)n2-c2ccccc2)c(C)c1,inactive: 106%
7,CSCCC(NC(N)=O)C(=O)NCc1cccc(Cl)c1 (centres undefined),inactive: 105%
8,CC(C)CN(C(=O)CSc1nnc(-c2ccco2)o1)c1c(N)n(Cc2ccccc2)c(=O)[nH]c1=O,inconclusive: 113%
9,CCOc1ccc(N(C(=O)C2CCCO2)C2C=CS(=O)(=O)C2)cc1 (centres undefined),inactive: 102%
10,Cc1ccc(NC(=O)Cn2cccc2C2=NC(c3ccccc3)CO2)cc1C (centres undefined),inactive: 96.4%
11,COc1cc(O)c(C(CCN2CCOCC2)c2ccc(N(C)C)cc2)c(OC)c1 (centres undefined),inconclusive: 107%
12,CNC(=O)/C(C#N)=C/c1cn(CC(=O)OC)c2ccccc12,inconclusive: 33.1%
13,CCC(CO)NC(=O)c1ccccc1C(F)(F)F (centres undefined),inconclusive: 134%
14,Cc1nc(N)[nH]c(=O)c1CC(=O)OCCCl,inconclusive: 113%
15,Fc1cccc2sc(N3CCCC3)nc12,inconclusive: 101%
16,CC(C)Cn1c(=S)[nH]c2cc(C(=O)O)ccc2c1=O,inconclusive: 124%
17,C=C(C)C(=O)Nc1cccc(C2=NOC3(C2)C[C@H](C(N)=O)N(C(=O)CC#N)C3)c1 (some centres undefined),inconclusive: 94.2%
18,CCN1/C(=C\C=C(C(C)=O)C(C)=O)Sc2ccccc21,inactive: 97.7%
19,CC12C(=O)N(c3ccccc3)C(=O)C1C(c1ccccc1)N1CCCN12 (centres undefined),inconclusive: 45.3%
20,COc1ccc(N(CC(=O)NCc2ccccc2C)S(=O)(=O)c2ccccc2[N+](=O)[O-])c(OC)c1,inactive: 95.7%
21,CC(=O)Nc1cccc(-c2csc(Nc3ccc(Cl)cn3)n2)c1,inconclusive: 109%
22,CC(C)=NN1C(=O)c2ccccc2NC1(C)C,inconclusive: 56.7%

# In a second layout: entries from further up
row	Structure (SMILES)	binding response (% of control)
1	O=C(NCCCn1ccnc1)C(=O)NCC1OCCN1S(=O)(=O)c1ccc2c(c1)OCCO2 (centres undefined)	inconclusive: 98.4%
5	Cc1c(-n2c(SCC(C)C)nc3ccccc3c2=O)c(=O)n(-c2ccccc2)n1C	inconclusive: 108%
9	Cc1cccc(NC(=S)NNC(=O)c2cccc([N+](=O)[O-])c2)c1	inconclusive: 54.8%
12	O=C(CN1C(=O)c2ccccc2C1=O)Nc1cc([N+](=O)[O-])ccc1O	inconclusive: 104%
19	CCOc1cc(C)c(C(C)C)cc1S(=O)(=O)n1cnc(C)c1	inconclusive: 106%
22	CC(NC(=O)c1ccc(Cl)c(Cl)c1)c1ccc(-c2ccccc2)cc1 (centres undefined)	inconclusive: 98.7%
4	COc1ccc(C(=O)N/N=C/c2sc(=O)n(Cc3cccc(C(=O)O)c3)c2Cl)cc1	inconclusive: 105%
5	Cc1cccc(Oc2ccc(NC(=O)c3ccccc3C(=O)O)cc2)c1C	inconclusive: 103%
11	COc1cc(O)c(C(CCN2CCOCC2)c2ccc(N(C)C)cc2)c(OC)c1 (centres undefined)	inconclusive: 107%
15	Fc1cccc2sc(N3CCCC3)nc12	inconclusive: 101%
17	C=C(C)C(=O)Nc1cccc(C2=NOC3(C2)C[C@H](C(N)=O)N(C(=O)CC#N)C3)c1 (some centres undefined)	inconclusive: 94.2%
19	CC12C(=O)N(c3ccccc3)C(=O)C1C(c1ccccc1)N1CCCN12 (centres undefined)	inconclusive: 45.3%
